Reference: patent US8481084B2, “Cholesterol-interacting layered phyllosilicates and methods of reducing hypercholesteremia in a mammal” (Amcol International Corporation, priority 2007, dated 2013)
At least one compound was matched to its structure with a doubt left.

Legend:
[1] = system: New Zealand Male Rabbits fed a high cholesterol diet; test: Plasma lipids in rabbits fed a high cholesterol diet, severe dyslipidemic model (Example 11); format: in vivo, New Zealand white rabbits; conditions: simvastatin 3 mg/kg/day, Compounds 20 mg/kg/day
Protocol: Male New Zealand white rabbits ([…]; Control group [n=5], Simvastatin Group [n=4], Compound A Group [n=5], Compound B Group [n=5] and Compound C Group [n=5]) were housed in individual cages in a room with constant humidity and temperature (22° C.) under a 12 h light-dark cycle, and fed a standard diet for 7 days. After 7 days, animals were fed 10 g of a regular chow diet plus 100 g of the same diet supplemented with 0.5% (w/v) cholesterol and 14.0% (w/v) coconut oil for an additional 28 days. The final diet administered to these rabbits (following dilution of 100 g of high fat/cholesterol diet with 10 g of regular chow) consistent of 0.45% (w/v) cholesterol and 12.75% (w/v) coconut oil. […] The total plasma cholesterol, ApoB, HDL and triglyceride concentrations of the subjects prior to drug treatment is set forth in FIGS. 1-4, respectively.
For an additional 21 days (day 35 to day 56 of the study), a group of control animals (n=5) were maintained on the same diet (10 g regular chow diet plus 100 g of cholesterol/coconut diet) and four groups of animals were fed 100 g of cholesterol/coconut diet plus 10 g regular chow diet containing either simvastatin (3 mg/kg/day; n=4), Compound A (hydrogen protonated layered phyllosilicate material (prepared as described above in Example 2); 20 mg/kg/day; n=5), Compound B (layered phyllosilicate material with surface modified with lecithin prepared as described above in Example 5); 20 mg/kg/day; n=5) and Compound C (layered phyllosilicate material with surface acid treatment prepared as described above in Example 6) 20 mg/kg/day; n=5). Whole blood was collected (3 ml) prior to and 7, 14, and 21 days after initiation of treatment for plasma lipid determinations.
Plasma total cholesterol and triglyceride concentrations were directly quantified using enzymatic kits (Sigma Aldrich). HDL-cholesterol concentrations were determined using the dextran sulfate-Mg^2+ precipitation method as developed by Wamick et al. (9). The Friedewald equation for determining LDL cholesterol could not be used in this rabbit fed model (10). However, measurement of apoB cholesterol (which takes into account LDL-cholesterol) concentrations were determined by subtracting HDL-cholesterol concentrations from total cholesterol concentrations.
Statistical analysis: Results are expressed as mean±standard error of the mean (SEM). Statistical analyses were conducted using an analysis of variance (PCANOVA; Human Dynamic Systems) and assuming unequal variance (Newman Keuls post-hoc test; assuming unequal variance). Variables compared among treatment groups include, weight gain, total plasma cholesterol, total plasma triglyceride, HDL-cholesterol and ApoB-cholesterol. A p-value of less than 0.05 indicates a significant difference between treated and untreated groups.

[2] = system: intestinal cholesterol absorption; test: Absorption of orally given [3H]cholesterol in rats, plasma AUC (Example 12); format: in vivo, male Sprague Dawley rats; conditions: 50 mg/kg
Protocol: The following Example was performed to determine the bioavailability and pharmacokinetics of dietary cholesterol following oral administration of different layered phyllosilicate material compounds to male Sprague Dawley rats, using the methodology reported in Wassan et al. J. Pharmaceut. Sci., 90:23-28, 2001.
Preparation of cholesterol formulation: Commercially available 20% Intralipid® was diluted by external phase of emulsion to reach a triglyceride concentration of 10% v/v. Cold cholesterole as dissolved in 100% ethanol (1 mg/75 μl) and the solution was slowly added to the 10% Intralipid® with magnetic stirring. […] The formulation was then mixed by magnetic stirring for an additional 30 minutes until ready for administration. […]
Preparation of Ezetimibe Formulation: Commercially Available Ezetimibe Tablets were crushed and suspended in double distilled water to reach final ezetimibe concentration of 5 mg/ml. The suspension was briefly vortexed and then stirred using a magnetic stirrer for about 1 hour until ready for administration. […]
Following oral administration, serial blood samples were collected into EDTA-coated tubes predose and at 10 minutes predosing and at 0.5, 1, 2, 4, 6, 10, 24 28, 32 and 48 hours postdosing. […] Plasma was obtained by centrifugation and analyzed for [^3H] cholesterol by radioactivity. […]

Compound | effect on HDL cholesterol concentrations compared to non-treated controls [1] | effect on apoB-cholesterol concentrations, day 35 to day 56, compared to non-treated controls [1] | effect on total plasma cholesterol concentrations, day 35 to day 56, compared to non-treated controls [1] | effect on total plasma triglyceride concentrations compared to non-treated controls [1] | effect on cholesterol absorption compared to the control, in words [2]
CCC(C)(C)C(=O)O[C@H]1C[C@@H](C)C=C2C=C[C@H](C)[C@H](CC[C@@H]3C[C@@H](O)CC(=O)O3)[C@H]21 [Simvastatin, simvastatin] | No statistically significant differences | significantly reduced the increase | significantly reduced the increase | significantly reduced the increase | –
CC[C@H](CC[C@@H](C)[C@H]1CC[C@H]2[C@@H]3CC[C@H]4C[C@@H](O)CC[C@]4(C)[C@H]3CC[C@]12C)C(C)C [stigmastanol] | – | – | – | – | same statistically significant inhibition
